The other results are listed elsewhere or left out.
These targets were tested with Cc1cc(ccc1-c1ccccc1)C(=O)N1CCCN(CC1)C(=O)CCl [compound 10] (assay: probe-labelled cysteine peptide fold change vs DMSO (competition) (log2 fold change); higher = less target engagement (more negative = stronger competition)). Conditions: 10 µM; THP-1; incubation time: 4 h.
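Further: competitive profiling in live THP-1 cells: cysteine peptides tagged with an iodoacetamide desthiobiotin (IA-DTB) probe, intensity after compound treatment relative to DMSO-treated cells.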

Sequences of proteins named here, by UniProt entry; tags and fusion partners are left off. A change or cut given only in a name is not applied to a line headed by its entry.
UniProt Q04726: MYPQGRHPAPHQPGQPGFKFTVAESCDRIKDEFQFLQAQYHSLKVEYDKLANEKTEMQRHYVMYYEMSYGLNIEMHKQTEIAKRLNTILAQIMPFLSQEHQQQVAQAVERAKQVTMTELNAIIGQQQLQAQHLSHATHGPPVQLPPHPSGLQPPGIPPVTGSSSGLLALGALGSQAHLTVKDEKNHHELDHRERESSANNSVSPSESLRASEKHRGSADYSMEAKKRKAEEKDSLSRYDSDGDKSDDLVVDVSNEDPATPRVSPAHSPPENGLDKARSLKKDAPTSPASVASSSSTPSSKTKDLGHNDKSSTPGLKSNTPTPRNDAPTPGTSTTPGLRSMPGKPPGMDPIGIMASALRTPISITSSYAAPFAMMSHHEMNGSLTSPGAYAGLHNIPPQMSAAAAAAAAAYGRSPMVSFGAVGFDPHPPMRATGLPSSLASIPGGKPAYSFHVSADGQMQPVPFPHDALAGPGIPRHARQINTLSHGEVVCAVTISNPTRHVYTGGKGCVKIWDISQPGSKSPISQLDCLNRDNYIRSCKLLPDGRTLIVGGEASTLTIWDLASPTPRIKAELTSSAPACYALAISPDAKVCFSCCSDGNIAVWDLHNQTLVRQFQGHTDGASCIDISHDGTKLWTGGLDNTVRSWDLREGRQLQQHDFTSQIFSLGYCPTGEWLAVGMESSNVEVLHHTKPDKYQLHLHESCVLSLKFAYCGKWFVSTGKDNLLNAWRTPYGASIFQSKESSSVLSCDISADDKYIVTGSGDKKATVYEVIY
UniProt Q9Y5J7: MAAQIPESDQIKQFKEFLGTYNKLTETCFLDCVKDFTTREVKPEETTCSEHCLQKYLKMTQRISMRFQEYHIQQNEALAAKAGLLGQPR
UniProt Q9Y5J9: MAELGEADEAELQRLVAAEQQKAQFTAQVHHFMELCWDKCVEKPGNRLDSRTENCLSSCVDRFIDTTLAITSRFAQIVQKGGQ
UniProt Q96RS0: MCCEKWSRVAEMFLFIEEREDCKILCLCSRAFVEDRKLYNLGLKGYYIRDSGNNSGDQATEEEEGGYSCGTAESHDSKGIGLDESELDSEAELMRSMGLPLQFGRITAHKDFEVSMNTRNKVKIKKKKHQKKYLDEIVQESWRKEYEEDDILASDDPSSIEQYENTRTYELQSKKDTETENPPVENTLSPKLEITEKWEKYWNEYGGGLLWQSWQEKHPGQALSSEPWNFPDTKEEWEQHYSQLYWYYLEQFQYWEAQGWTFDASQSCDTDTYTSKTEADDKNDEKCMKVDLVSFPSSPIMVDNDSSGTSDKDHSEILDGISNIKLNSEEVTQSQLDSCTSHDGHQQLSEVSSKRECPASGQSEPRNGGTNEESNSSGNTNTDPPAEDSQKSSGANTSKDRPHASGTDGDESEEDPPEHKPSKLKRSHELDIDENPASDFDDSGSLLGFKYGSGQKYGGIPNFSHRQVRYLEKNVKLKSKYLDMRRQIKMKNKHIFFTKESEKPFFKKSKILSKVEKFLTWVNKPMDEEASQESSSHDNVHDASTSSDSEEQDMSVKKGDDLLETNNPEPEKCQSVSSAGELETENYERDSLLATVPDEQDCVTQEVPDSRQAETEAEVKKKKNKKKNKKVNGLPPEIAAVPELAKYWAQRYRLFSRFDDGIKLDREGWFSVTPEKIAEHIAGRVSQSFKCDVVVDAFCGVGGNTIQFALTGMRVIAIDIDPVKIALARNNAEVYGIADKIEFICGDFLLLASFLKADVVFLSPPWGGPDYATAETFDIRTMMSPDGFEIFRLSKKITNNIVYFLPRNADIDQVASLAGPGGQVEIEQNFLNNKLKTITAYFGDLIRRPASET
UniProt Q9UGI8: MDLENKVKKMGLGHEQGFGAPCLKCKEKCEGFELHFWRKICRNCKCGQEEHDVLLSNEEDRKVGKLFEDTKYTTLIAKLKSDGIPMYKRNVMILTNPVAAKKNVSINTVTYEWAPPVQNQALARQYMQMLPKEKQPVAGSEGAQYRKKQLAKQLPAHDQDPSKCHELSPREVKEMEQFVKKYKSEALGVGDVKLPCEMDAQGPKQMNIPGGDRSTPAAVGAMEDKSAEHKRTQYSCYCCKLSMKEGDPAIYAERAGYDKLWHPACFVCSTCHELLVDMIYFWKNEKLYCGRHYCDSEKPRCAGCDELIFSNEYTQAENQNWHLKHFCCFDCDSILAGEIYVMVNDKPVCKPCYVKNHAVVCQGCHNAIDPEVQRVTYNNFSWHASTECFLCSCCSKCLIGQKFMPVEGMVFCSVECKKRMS
UniProt Q3ZCQ8: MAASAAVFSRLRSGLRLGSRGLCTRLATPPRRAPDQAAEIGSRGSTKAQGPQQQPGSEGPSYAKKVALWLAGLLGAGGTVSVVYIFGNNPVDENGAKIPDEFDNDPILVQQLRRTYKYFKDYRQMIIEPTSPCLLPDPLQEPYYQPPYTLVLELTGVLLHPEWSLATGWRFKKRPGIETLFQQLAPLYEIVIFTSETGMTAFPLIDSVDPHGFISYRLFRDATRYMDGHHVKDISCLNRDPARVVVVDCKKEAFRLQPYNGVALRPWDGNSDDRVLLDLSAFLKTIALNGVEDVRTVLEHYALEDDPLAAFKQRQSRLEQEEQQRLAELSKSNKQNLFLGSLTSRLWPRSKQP
UniProt Q8NI27: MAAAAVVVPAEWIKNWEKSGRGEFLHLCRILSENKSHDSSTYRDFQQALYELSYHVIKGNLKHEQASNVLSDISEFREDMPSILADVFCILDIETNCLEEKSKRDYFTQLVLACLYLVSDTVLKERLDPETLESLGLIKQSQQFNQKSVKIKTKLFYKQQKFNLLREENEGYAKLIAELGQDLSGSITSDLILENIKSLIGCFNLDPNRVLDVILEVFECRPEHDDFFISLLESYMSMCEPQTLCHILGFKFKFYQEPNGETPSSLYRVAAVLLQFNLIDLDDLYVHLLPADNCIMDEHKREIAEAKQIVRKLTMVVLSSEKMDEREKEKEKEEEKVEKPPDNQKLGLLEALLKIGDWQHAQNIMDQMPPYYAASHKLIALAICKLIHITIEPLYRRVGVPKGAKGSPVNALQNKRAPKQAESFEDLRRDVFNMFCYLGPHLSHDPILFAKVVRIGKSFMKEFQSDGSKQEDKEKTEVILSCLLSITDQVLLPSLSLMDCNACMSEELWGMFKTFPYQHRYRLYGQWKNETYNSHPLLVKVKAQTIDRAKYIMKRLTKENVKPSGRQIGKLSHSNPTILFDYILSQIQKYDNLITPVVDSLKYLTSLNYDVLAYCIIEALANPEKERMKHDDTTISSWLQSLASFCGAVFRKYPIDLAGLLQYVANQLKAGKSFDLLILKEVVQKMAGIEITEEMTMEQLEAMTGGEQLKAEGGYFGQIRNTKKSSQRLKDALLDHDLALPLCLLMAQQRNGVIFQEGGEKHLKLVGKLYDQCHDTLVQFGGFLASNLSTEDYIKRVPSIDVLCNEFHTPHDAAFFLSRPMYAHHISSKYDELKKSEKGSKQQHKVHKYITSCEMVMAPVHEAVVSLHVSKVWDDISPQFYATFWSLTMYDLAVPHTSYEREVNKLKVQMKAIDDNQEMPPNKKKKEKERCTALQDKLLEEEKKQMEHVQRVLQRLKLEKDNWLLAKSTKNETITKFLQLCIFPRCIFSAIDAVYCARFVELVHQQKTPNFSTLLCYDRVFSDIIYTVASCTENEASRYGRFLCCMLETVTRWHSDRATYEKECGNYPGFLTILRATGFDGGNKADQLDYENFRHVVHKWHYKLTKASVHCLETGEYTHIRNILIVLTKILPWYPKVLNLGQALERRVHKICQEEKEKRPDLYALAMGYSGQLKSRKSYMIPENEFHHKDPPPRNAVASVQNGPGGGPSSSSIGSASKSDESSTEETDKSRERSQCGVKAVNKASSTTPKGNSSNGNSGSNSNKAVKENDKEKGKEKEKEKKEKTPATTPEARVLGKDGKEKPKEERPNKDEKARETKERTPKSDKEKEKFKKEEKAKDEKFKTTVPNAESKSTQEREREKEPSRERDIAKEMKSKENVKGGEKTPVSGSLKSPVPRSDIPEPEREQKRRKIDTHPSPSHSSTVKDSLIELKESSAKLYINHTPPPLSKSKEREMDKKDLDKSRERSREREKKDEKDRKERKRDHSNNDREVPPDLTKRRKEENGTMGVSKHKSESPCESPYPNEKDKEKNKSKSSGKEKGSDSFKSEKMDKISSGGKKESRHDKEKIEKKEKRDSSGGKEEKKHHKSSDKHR
UniProt Q8NHU6: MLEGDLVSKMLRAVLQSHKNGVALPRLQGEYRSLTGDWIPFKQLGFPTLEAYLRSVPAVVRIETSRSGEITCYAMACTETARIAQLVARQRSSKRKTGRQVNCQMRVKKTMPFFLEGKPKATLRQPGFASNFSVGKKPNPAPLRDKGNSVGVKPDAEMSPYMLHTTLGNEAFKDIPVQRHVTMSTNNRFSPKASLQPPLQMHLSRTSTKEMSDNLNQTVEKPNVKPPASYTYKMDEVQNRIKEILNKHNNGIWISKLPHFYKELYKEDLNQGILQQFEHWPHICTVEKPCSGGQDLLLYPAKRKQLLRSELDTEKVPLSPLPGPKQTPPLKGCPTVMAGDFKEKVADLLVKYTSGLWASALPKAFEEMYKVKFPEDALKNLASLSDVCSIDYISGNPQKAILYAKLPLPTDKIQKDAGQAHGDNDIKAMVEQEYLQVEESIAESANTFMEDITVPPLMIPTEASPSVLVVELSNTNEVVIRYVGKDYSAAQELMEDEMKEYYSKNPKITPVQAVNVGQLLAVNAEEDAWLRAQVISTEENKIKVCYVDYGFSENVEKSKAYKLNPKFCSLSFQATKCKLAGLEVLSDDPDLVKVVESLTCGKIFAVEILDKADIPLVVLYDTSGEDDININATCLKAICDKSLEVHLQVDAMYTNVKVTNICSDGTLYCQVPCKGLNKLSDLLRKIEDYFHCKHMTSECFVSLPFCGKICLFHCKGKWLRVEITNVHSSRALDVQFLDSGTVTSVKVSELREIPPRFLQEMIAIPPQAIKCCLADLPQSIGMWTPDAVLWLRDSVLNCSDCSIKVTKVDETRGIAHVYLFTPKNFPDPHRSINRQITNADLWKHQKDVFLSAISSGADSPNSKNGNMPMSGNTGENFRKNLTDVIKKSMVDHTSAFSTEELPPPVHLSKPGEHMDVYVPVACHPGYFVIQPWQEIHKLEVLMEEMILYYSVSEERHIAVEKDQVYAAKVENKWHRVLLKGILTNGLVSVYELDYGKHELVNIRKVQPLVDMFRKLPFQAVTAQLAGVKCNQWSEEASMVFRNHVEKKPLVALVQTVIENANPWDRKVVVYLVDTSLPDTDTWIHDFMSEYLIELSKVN
UniProt Q9NQ88: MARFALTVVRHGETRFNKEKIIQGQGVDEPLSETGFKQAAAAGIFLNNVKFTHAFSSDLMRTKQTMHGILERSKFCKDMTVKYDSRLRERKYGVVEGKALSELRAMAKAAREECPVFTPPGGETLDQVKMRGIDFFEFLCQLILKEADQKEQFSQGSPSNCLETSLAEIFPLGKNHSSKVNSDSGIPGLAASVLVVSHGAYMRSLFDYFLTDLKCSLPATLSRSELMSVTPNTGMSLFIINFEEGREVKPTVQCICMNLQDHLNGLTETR
UniProt Q9NYB0: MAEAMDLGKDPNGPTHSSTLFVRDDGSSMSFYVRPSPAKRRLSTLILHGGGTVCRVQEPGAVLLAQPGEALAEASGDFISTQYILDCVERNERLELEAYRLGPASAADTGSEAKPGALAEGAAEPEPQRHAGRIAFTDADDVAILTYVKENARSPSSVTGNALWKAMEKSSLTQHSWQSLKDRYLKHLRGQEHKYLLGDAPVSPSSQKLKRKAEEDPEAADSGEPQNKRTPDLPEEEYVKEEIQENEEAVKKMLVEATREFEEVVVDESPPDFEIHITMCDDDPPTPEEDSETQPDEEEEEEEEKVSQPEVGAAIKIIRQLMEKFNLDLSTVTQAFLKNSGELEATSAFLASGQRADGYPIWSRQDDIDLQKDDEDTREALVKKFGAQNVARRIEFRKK
UniProt Q96FV9: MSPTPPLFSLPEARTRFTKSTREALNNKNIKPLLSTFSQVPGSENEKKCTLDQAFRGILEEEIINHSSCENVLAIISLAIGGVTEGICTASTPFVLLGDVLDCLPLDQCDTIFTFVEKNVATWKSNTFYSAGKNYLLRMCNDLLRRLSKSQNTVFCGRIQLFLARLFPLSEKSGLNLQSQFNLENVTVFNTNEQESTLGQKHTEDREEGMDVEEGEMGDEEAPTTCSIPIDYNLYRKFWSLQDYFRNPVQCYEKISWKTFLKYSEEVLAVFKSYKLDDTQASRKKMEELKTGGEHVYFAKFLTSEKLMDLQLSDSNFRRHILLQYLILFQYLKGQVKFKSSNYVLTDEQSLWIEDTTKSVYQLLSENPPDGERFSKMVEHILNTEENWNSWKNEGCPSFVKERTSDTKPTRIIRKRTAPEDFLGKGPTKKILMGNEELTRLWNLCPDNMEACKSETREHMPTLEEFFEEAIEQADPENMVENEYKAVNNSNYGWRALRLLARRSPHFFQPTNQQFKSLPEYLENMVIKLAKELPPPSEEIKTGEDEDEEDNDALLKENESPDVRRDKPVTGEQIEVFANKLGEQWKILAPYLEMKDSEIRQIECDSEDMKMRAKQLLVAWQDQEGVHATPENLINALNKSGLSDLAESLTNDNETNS

Row | Target | probe-labelled cysteine peptide fold change
1 | TLE3_Q04726_26_FTVAESCDR (UniProt Q04726) | 0.0108
2 | TKT_P29401_206+225_CEAFGWHAIIVDGHSVEELCK (UniProt P29401) | 0.177
3 | THBD_P07204_256_EAPGAWDCSVENGGCEHACNAIPGAPR (UniProt P07204) | -0.213
4 | TIMM9_Q9Y5J7_52_EVKPEETTCSEHCLQK (UniProt Q9Y5J7) | -0.00139
5 | THOC6_Q86W42_324_VLTAAGNSCR (UniProt Q86W42) | -0.0877
6 | TIMM8B_Q9Y5J9_59_TENCLSSCVDR (UniProt Q9Y5J9) | -0.228
7 | TIMP3_P35625_184_HYACIR (UniProt P35625) | 0.0581
8 | THOC3_Q96J01_65_VHSVAWSCDGR (UniProt Q96J01) | -0.0273
9 | TLN1_Q9Y490_1661+1671_APGQLECETAIAALNSCLR (UniProt Q9Y490) | -0.213
10 | TCP1_P17987_236_IACLDFSLQK (UniProt P17987) | 0.107
11 | TGS1_Q96RS0_357_ECPASGQSEPR (UniProt Q96RS0) | -0.00223
12 | THOP1_P52888_18_MKPPAACAGDMADAASPCSVVNDLR (UniProt P52888) | -0.386
13 | TLN1_Q9Y490_1353_AVTDSINQLITMCTQQAPGQK (UniProt Q9Y490) | 0.11
14 | THADA_Q6YHU6_1605_ENHPECFCK (UniProt Q6YHU6) | -0.00737
15 | TDP1_Q9NUW8_135_TENHGAPACHR (UniProt Q9NUW8) | -0.175
16 | THOP1_P52888_644_SCILRPGGSEDASAMLR (UniProt P52888) | -0.0261
17 | TELO2_Q9Y4R8_568_TCVVGFAGLR (UniProt Q9Y4R8) | 0.142
18 | TFB1M_Q8WVM0_160_WLENISCR (UniProt Q8WVM0) | -0.139
19 | TKT_P29401_413+417_MAAISESNINLCGSHCGVSIGEDGPSQMALEDLAMFR (UniProt P29401) | -0.0102
20 | TIAL1_Q01085_205+209_NCTVYCGGIASGLTDQLMR (UniProt Q01085) | -0.188

Row | Target | probe-labelled cysteine peptide fold change
21 | THUMPD3_Q9BV44_2_CDIEEATNQLLDVNLHENQK (UniProt Q9BV44) | -0.202
22 | TELO2_Q9Y4R8_222_ACVHGR (UniProt Q9Y4R8) | -0.0612
23 | THSD7A_Q9UPZ6_1036_CNSHGYIEEACIIPCPSDCK (UniProt Q9UPZ6) | -0.3
24 | TFRC_P02786_363_TDSTCR (UniProt P02786) | -0.171
25 | TJAP1_Q5JTD0_350_NSPLPNCTYATR (UniProt Q5JTD0) | -0.147
26 | TES_Q9UGI8_29_CEGFELHFWR (UniProt Q9UGI8) | -0.0799
27 | TIMM50_Q3ZCQ8_249_VVVVDCK (UniProt Q3ZCQ8) | 0.628
28 | THOC2_Q8NI27_1045_FLCCMLETVTR (UniProt Q8NI27) | 0.0255
29 | THOC3_Q96J01_106_GHGDSVDQLCWHPSNPDLFVTASGDK (UniProt Q96J01) | 0.0637
30 | TDRKH_Q9Y2W6_109_VLLISGFPVQVCK (UniProt Q9Y2W6) | -0.429
31 | TDRD7_Q8NHU6_333_GCPTVMAGDFK (UniProt Q8NHU6) | -0.179
32 | TERF2_Q15554_207_EAAVIICIK (UniProt Q15554) | -0.0307
33 | TIGAR_Q9NQ88_256_EVKPTVQCICMNLQDHLNGLTETR (UniProt Q9NQ88) | 0.187
34 | TERF2IP_Q9NYB0_54_LSTLILHGGGTVCR (UniProt Q9NYB0) | -0.0408
35 | TGFBRAP1_Q8WUH2_32_VNIECVECCGR (UniProt Q8WUH2) | -0.197
36 | THAP10_Q9P2Z0_171_QAAASQITCENELVQTQPHADNPSNTVTSVPTHCEEGPVHK (UniProt Q9P2Z0) | -0.544
37 | TK2_O00142_54_SVICVEGNIASGK (UniProt O00142) | -0.108
38 | THOC6_Q86W42_214_EVQTIEVYKHEECSR (UniProt Q86W42) | 0.0649
39 | TGM2_P21980_371_SEGTYCCGPVPVR (UniProt P21980) | 0.00473
40 | THOC1_Q96FV9_156_SQNTVFCGR (UniProt Q96FV9) | -0.364

Same assay, conditions: 50 µM; THP-1; incubation time: 4 h

Row | Target | probe-labelled cysteine peptide fold change
41 | TLE3_Q04726_26_FTVAESCDR (UniProt Q04726) | 0.0838
42 | TKT_P29401_206+225_CEAFGWHAIIVDGHSVEELCK (UniProt P29401) | 0.275
43 | THBD_P07204_256_EAPGAWDCSVENGGCEHACNAIPGAPR (UniProt P07204) | 0.174
44 | TIMM9_Q9Y5J7_52_EVKPEETTCSEHCLQK (UniProt Q9Y5J7) | 0.164
45 | THOC6_Q86W42_324_VLTAAGNSCR (UniProt Q86W42) | 0.127
46 | TIMM8B_Q9Y5J9_59_TENCLSSCVDR (UniProt Q9Y5J9) | -0.0725
47 | TIMP3_P35625_184_HYACIR (UniProt P35625) | 0.165
48 | THOC3_Q96J01_65_VHSVAWSCDGR (UniProt Q96J01) | 0.188
49 | TLN1_Q9Y490_1661+1671_APGQLECETAIAALNSCLR (UniProt Q9Y490) | -0.418
50 | TCP1_P17987_236_IACLDFSLQK (UniProt P17987) | 0.172
51 | TGS1_Q96RS0_357_ECPASGQSEPR (UniProt Q96RS0) | 0.216
52 | THOP1_P52888_18_MKPPAACAGDMADAASPCSVVNDLR (UniProt P52888) | -0.66
53 | TLN1_Q9Y490_1353_AVTDSINQLITMCTQQAPGQK (UniProt Q9Y490) | 0.156
54 | THADA_Q6YHU6_1605_ENHPECFCK (UniProt Q6YHU6) | 0.033
55 | TDP1_Q9NUW8_135_TENHGAPACHR (UniProt Q9NUW8) | -0.466
56 | THOP1_P52888_644_SCILRPGGSEDASAMLR (UniProt P52888) | -0.0159
57 | TELO2_Q9Y4R8_568_TCVVGFAGLR (UniProt Q9Y4R8) | -0.259
58 | TFB1M_Q8WVM0_160_WLENISCR (UniProt Q8WVM0) | 0.0286
59 | TKT_P29401_413+417_MAAISESNINLCGSHCGVSIGEDGPSQMALEDLAMFR (UniProt P29401) | -0.00473
60 | TIAL1_Q01085_205+209_NCTVYCGGIASGLTDQLMR (UniProt Q01085) | -0.414

Row | Target | probe-labelled cysteine peptide fold change
61 | THUMPD3_Q9BV44_2_CDIEEATNQLLDVNLHENQK (UniProt Q9BV44) | -0.0119
62 | TELO2_Q9Y4R8_222_ACVHGR (UniProt Q9Y4R8) | -0.414
63 | THSD7A_Q9UPZ6_1036_CNSHGYIEEACIIPCPSDCK (UniProt Q9UPZ6) | 0.058
64 | TFRC_P02786_363_TDSTCR (UniProt P02786) | -0.13
65 | TJAP1_Q5JTD0_350_NSPLPNCTYATR (UniProt Q5JTD0) | -0.739
66 | TES_Q9UGI8_29_CEGFELHFWR (UniProt Q9UGI8) | -0.158
67 | TIMM50_Q3ZCQ8_249_VVVVDCK (UniProt Q3ZCQ8) | 0.897
68 | THOC2_Q8NI27_1045_FLCCMLETVTR (UniProt Q8NI27) | -0.435
69 | THOC3_Q96J01_106_GHGDSVDQLCWHPSNPDLFVTASGDK (UniProt Q96J01) | -0.191
70 | TDRKH_Q9Y2W6_109_VLLISGFPVQVCK (UniProt Q9Y2W6) | -0.927
71 | TDRD7_Q8NHU6_333_GCPTVMAGDFK (UniProt Q8NHU6) | -0.539
72 | TERF2_Q15554_207_EAAVIICIK (UniProt Q15554) | 0.0277
73 | TIGAR_Q9NQ88_256_EVKPTVQCICMNLQDHLNGLTETR (UniProt Q9NQ88) | -0.00565
74 | TERF2IP_Q9NYB0_54_LSTLILHGGGTVCR (UniProt Q9NYB0) | -0.125
75 | TGFBRAP1_Q8WUH2_32_VNIECVECCGR (UniProt Q8WUH2) | 0.0448
76 | THAP10_Q9P2Z0_171_QAAASQITCENELVQTQPHADNPSNTVTSVPTHCEEGPVHK (UniProt Q9P2Z0) | -0.447
77 | TK2_O00142_54_SVICVEGNIASGK (UniProt O00142) | 0.145
78 | THOC6_Q86W42_214_EVQTIEVYKHEECSR (UniProt Q86W42) | 0.0934
79 | TGM2_P21980_371_SEGTYCCGPVPVR (UniProt P21980) | -0.293
80 | THOC1_Q96FV9_156_SQNTVFCGR (UniProt Q96FV9) | 0.123
